Results are given in words; binding and its absence hold for the method and conditions named. In cells and extracts the contact can be indirect. Some binding calls cover weakened binding; strength is not graded here. Tags and fused reporters may be left off the sequences shown.
T1: FLAG-GMEB1 (human) (UniProt Q9Y692)
T1 sequence: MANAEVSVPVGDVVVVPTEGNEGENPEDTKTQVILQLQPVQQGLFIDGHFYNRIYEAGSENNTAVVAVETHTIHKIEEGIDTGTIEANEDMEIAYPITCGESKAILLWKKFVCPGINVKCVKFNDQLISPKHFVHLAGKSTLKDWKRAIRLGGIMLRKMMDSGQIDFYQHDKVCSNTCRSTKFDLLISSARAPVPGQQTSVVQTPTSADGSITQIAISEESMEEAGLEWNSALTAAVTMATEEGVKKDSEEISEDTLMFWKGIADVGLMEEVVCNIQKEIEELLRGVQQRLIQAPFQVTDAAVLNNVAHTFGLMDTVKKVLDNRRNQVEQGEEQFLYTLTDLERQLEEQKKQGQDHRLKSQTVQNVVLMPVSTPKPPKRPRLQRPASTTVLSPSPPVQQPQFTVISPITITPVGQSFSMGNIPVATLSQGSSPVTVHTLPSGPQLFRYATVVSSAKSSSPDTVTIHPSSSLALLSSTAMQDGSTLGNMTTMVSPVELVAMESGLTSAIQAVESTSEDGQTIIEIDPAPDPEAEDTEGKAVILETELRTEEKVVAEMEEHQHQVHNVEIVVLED

Amino acid sequences for entries named in this document (tags omitted). A change or cut given only in a name is not applied to a line headed by its entry. Chains listed by the source or under a name are the forms on record and can include a tag or linker.
UniProt Q14790: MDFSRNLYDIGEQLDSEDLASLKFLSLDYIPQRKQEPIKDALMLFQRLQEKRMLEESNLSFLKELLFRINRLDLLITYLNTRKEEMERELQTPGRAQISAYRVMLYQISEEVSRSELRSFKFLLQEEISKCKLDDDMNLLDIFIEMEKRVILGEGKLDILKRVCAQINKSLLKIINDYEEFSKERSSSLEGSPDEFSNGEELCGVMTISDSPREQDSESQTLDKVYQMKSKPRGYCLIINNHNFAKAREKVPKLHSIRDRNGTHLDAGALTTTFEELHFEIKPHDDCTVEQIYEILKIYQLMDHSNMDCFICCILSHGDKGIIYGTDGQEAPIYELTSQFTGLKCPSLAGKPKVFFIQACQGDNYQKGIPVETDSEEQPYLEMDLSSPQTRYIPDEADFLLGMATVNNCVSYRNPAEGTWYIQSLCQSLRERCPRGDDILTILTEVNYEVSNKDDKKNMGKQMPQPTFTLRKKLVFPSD
HIS-CASP8M (Q14790, form named): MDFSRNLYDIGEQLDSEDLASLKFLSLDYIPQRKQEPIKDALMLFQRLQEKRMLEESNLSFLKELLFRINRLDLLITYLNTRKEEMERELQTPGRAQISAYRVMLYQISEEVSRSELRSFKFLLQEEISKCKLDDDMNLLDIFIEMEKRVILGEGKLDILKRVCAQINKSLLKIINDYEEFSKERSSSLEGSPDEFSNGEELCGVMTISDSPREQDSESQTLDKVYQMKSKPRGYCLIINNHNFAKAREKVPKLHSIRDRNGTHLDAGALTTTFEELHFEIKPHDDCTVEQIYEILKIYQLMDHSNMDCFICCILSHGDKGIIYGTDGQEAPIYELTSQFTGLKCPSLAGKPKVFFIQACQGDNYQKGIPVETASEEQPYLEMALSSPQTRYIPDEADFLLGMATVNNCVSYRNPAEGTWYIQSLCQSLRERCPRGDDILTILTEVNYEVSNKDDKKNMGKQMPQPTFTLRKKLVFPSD

T2: His-tagged USP40 (human) (UniProt Q9NVE5)
T2 sequence: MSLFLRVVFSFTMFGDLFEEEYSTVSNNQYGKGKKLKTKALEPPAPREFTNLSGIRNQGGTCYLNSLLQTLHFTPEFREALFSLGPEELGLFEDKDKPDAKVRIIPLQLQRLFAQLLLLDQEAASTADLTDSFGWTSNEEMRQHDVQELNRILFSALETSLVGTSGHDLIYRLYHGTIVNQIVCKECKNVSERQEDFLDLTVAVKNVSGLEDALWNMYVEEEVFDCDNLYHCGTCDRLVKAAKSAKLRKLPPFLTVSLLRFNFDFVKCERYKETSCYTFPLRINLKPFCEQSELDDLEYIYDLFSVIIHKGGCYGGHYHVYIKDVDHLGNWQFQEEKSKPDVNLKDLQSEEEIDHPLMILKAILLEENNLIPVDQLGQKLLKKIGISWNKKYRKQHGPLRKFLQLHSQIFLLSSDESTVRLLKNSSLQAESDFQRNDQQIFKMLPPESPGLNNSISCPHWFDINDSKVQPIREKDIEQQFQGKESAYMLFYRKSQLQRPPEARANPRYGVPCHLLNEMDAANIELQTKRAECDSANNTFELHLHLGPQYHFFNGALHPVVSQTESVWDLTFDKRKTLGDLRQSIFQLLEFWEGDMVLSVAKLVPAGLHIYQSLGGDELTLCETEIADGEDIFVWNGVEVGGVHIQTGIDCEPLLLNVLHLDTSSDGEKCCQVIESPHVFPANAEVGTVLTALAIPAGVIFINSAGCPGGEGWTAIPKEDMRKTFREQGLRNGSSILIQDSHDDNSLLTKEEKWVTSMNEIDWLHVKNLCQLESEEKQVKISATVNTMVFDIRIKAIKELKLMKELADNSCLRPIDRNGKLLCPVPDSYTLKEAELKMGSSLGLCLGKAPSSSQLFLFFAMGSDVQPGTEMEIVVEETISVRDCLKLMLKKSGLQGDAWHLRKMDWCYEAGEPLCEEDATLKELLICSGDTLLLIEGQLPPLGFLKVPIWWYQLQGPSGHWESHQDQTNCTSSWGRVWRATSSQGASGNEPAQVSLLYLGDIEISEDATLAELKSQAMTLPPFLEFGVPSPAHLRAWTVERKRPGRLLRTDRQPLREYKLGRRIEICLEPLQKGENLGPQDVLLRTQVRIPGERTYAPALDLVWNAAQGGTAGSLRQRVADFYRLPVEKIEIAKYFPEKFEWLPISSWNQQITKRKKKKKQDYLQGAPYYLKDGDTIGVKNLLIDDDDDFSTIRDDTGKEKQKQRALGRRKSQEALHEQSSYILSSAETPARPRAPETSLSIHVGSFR

B1: HA-tagged GMEB1 (glucocorticoid modulatory element-binding protein 1) (protein, UniProt Q9Y692 1-573)
chain: T1 sequence

What was measured:
[1] = biological target: T1, FLAG-GMEB1 (human); assay: co-IP; tagged plasmids co-transfected in HEK293FT cells; lysis buffer 20 mM Tris-HCl pH 7.5, 150 mM NaCl, 0.5% Triton; antibody 1 h and protein A beads 2 h at 4 °C; some panels with GMEB1, CASP8 or CFLARL siRNA or with GMEB1 overexpression
[2] = biological target: T2, His-tagged USP40 (human); assay: co-IP; tagged GMEB1 and tagged USP40, with a reverse experiment; cells not stated for this experiment

Molecule	binding [1]	binding [2]
HIS-CASP8M (from UniProt Q14790 1-479) (enzyme)	binds	
B1		binds

Reference: publication PMC6498657
